No constants are given. Whether binding was seen depends on the method and setting. Binding seen in cells or lysates may run through a third protein. Some entries that bind do so weakly or less than the wild type. Tags and fused reporters may be left off the sequences shown.
T1: myc-tagged TRADD (UniProt Q15628)
T1 sequence (looked up): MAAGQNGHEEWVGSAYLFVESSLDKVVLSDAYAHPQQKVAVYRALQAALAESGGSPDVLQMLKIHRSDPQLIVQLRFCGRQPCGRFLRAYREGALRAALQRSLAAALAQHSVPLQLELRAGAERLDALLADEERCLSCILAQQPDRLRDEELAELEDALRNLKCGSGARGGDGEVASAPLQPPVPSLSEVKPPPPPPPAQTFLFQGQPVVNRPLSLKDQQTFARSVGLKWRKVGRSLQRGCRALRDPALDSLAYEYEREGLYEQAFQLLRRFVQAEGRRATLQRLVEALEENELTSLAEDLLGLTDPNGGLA

T2: FADD, Q13158
T2 chain: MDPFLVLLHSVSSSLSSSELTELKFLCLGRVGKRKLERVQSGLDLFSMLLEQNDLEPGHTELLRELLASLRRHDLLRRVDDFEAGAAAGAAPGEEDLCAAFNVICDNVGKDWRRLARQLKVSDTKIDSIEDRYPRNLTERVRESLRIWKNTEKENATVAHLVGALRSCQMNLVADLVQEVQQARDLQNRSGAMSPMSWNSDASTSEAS

B1: FLAG-DR3 (receptor, UniProt Q93038 25-417, looked up)
chain: QGGTRSPRCDCAGDFHKKIGLFCCRGCPAGHYLKAPCTEPCGNSTCLVCPQDTFLAWENHHNSECARCQACDEQASQVALENCSAVADTRCGCKPGWFVECQVSQCVSSSPFYCQPCLDCGALHRHTRLLCSRRDTDCGTCLPGFYEHGDGCVSCPTSTLGSCPERCAAVCGWRQMFWVQVLLAGLVVPLLLGATLTYTYRHCWPHKPLVTADEAGMEALTPPPATHLSPLDSAHTLLAPPDSSEKICTVQLVGNSWTPGYPETQEALCPQVTWSWDQLPSRALGPAAAPTLSPESPAGSPAMMLQPGPQLYDVMDAVPARRWKEFVRTLGLREAEIEAVEVEIGRFRDQQYEMLKRWRQQQPAGLGAVYAALERMGLDGCVEDLRSRLQRGP
B2: FLAG-CD95, P25445 26-335 (receptor, UniProt P25445 26-335, looked up)
chain: QVTDINSKGLELRKTVTTVETQNLEGLHHDGQFCHKPCPPGERKARDCTVNGDEPDCVPCQEGKEYTDKAHFSSKCRRCRLCDEGHGLEVEINCTRTQNTKCRCKPNFFCNSTVCEHCDPCTKCEHGIIKECTLTSNTKCKEEGSRSNLGWLCLLLLPIPLIVWVKRKEVQKTCRKHRKENQGSHESPTLNPETVAINLSDVDLSKYITTIAGVMTLSQVKGFVRKNGVNEAKIDEIKNDNVQDTAEQKVQLLRNWHQLHGKKEAYDTLIKDLKKANLCTLAEKIQTIILKDITSDSENSNFRNEIQSLV

Assays:
myc-tagged TRADD = molecular target: T1, myc-tagged TRADD; test: co-immunoprecipitation from co-transfected 293 cells (FLAG M2 affinity gel, immunoblot with anti-myc-HRP)
FADD, Q13158 = molecular target: T2, FADD, Q13158; test: co-immunoprecipitation from co-transfected 293 cells (FLAG M2 affinity gel, immunoblot with anti-FADD); details: remark: other sources report otherwise

Binder | binding (myc-tagged TRADD) | binding (FADD, Q13158)
B1 | binds | –
B2 | – | binds
